Assay [1] concerns the target T1, Flag-SIAH2^RM (H98A/C101A), E3 ligase activity dead mutant (UniProt O43255).
T1 sequence: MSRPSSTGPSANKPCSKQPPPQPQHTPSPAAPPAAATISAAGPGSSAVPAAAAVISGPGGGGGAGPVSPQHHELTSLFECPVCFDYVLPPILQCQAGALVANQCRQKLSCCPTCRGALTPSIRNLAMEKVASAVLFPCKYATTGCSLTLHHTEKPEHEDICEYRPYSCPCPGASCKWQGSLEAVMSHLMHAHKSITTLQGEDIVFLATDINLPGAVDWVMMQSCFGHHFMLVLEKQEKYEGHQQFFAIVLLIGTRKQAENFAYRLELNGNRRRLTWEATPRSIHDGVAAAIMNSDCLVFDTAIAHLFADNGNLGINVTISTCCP
The experiment in a line: co-IP; exogenously expressed Myc-NRF1 or Myc-NRF1-K230R with Flag-SIAH2^RM; IP lysis buffer 150 mM NaCl, 20 mM Tris pH 7.4, 0.5% NP-40, 4 °C.

Assay [2] addresses T2, NRF1, endogenous in MDA-MB-231 cells (human (endogenous in MDA-MB-231)) (UniProt Q16656).
T2 sequence: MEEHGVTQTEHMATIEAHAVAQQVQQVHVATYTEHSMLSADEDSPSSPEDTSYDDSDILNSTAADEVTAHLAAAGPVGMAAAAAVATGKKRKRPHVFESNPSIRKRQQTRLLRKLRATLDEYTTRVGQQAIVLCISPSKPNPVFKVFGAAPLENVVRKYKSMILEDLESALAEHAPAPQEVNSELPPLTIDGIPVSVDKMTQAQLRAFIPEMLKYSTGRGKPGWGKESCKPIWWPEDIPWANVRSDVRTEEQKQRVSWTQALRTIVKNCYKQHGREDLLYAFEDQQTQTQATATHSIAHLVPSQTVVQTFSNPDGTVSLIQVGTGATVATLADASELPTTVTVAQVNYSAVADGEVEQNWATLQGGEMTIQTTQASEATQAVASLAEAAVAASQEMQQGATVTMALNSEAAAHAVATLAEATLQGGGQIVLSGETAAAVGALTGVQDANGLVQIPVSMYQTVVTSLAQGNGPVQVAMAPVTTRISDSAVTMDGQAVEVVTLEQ
The experiment in a line: co-IP; endogenous proteins, MDA-MB-231 cells under normoxia or hypoxia for 18 h, then 10 µM MG132 for another 6 h; the anti-NRF1 antibody is the only one against an endogenous protein listed for immunoprecipitation.

No constants are given. Whether binding was seen depends on the method and setting. Binding seen in cells or lysates may run through a third protein. Some results given as binding are weak or reduced against the parent protein; the word gives no strength. For part of these data: Tags and fused reporters may be left off the sequences shown.

For three molecules, binding results are on record in paper PMC6399320, “The SIAH2-NRF1 axis spatially regulates tumor microenvironment remodeling for tumor progression” (Nature Communications, 2019).

B1: Myc-NRF1, exogenously expressed (protein, UniProt Q16656 1-503)
chain: MEEHGVTQTEHMATIEAHAVAQQVQQVHVATYTEHSMLSADEDSPSSPEDTSYDDSDILNSTAADEVTAHLAAAGPVGMAAAAAVATGKKRKRPHVFESNPSIRKRQQTRLLRKLRATLDEYTTRVGQQAIVLCISPSKPNPVFKVFGAAPLENVVRKYKSMILEDLESALAEHAPAPQEVNSELPPLTIDGIPVSVDKMTQAQLRAFIPEMLKYSTGRGKPGWGKESCKPIWWPEDIPWANVRSDVRTEEQKQRVSWTQALRTIVKNCYKQHGREDLLYAFEDQQTQTQATATHSIAHLVPSQTVVQTFSNPDGTVSLIQVGTGATVATLADASELPTTVTVAQVNYSAVADGEVEQNWATLQGGEMTIQTTQASEATQAVASLAEAAVAASQEMQQGATVTMALNSEAAAHAVATLAEATLQGGGQIVLSGETAAAVGALTGVQDANGLVQIPVSMYQTVVTSLAQGNGPVQVAMAPVTTRISDSAVTMDGQAVEVVTLEQ
For B1, the binding result in assay [1] was “binds”.

B2: Myc-NRF1-K230R, exogenously expressed (protein, UniProt Q16656 1-503)
chain: MEEHGVTQTEHMATIEAHAVAQQVQQVHVATYTEHSMLSADEDSPSSPEDTSYDDSDILNSTAADEVTAHLAAAGPVGMAAAAAVATGKKRKRPHVFESNPSIRKRQQTRLLRKLRATLDEYTTRVGQQAIVLCISPSKPNPVFKVFGAAPLENVVRKYKSMILEDLESALAEHAPAPQEVNSELPPLTIDGIPVSVDKMTQAQLRAFIPEMLKYSTGRGKPGWGKESCRPIWWPEDIPWANVRSDVRTEEQKQRVSWTQALRTIVKNCYKQHGREDLLYAFEDQQTQTQATATHSIAHLVPSQTVVQTFSNPDGTVSLIQVGTGATVATLADASELPTTVTVAQVNYSAVADGEVEQNWATLQGGEMTIQTTQASEATQAVASLAEAAVAASQEMQQGATVTMALNSEAAAHAVATLAEATLQGGGQIVLSGETAAAVGALTGVQDANGLVQIPVSMYQTVVTSLAQGNGPVQVAMAPVTTRISDSAVTMDGQAVEVVTLEQ
B2: the binding entry in assay [1] is on record as “binds”.

B3: GST-SIAH2, bacterially expressed (enzyme, UniProt O43255 1-324, looked up)
chain: MSRPSSTGPSANKPCSKQPPPQPQHTPSPAAPPAAATISAAGPGSSAVPAAAAVISGPGGGGGAGPVSPQHHELTSLFECPVCFDYVLPPILQCQAGHLVCNQCRQKLSCCPTCRGALTPSIRNLAMEKVASAVLFPCKYATTGCSLTLHHTEKPEHEDICEYRPYSCPCPGASCKWQGSLEAVMSHLMHAHKSITTLQGEDIVFLATDINLPGAVDWVMMQSCFGHHFMLVLEKQEKYEGHQQFFAIVLLIGTRKQAENFAYRLELNGNRRRLTWEATPRSIHDGVAAAIMNSDCLVFDTAIAHLFADNGNLGINVTISTCCP
notes: E3 ligase SIAH2, cDNA cloned into pGEX-4T-1; Vector pGEX-4T-1; source: Escherichia coli BL21, expressed and purified
In the case of B3, in assay [2], the binding result is recorded as “binds”.
